{"source": "patent US20080176781A1", "about": "“Perfumes for linear citrus release in rinse-off systems” (priority 2007, published 2008)", "experiment": "Percent odor contribution within a water release group", "key": {"[1]": {"settings": "within its water release group, Delayed Citrus-Fruity Linear Release Perfume"}, "[2]": {"settings": "within its water release group, Citrus-Cucumber Sustained Release Type Fragrance"}, "[3]": {"settings": "within its water release group, Delayed Citrus-Floral Linear Release"}, "[4]": {"settings": "within its water release group, Deposition/Linear Release Citrus Perfume"}, "[5]": {"settings": "within its water release group, Flash Release Type Citrus"}, "[6]": {"settings": "within its water release group, Flash Release Type Citrus - Cucumber"}, "[7]": {"settings": "within its water release group, Sustained Citrus-Floral Linear Release"}, "[8]": {"settings": "within its water release group, Citrus Sustained Release Type Fragrance"}, "[9]": {"settings": "within its water release group, Flash Release Citrus Fruity perfume"}, "[10]": {"settings": "within its release group, Sustained Release Citrus-Fruity perfume"}, "[11]": {"settings": "within its water release group, Delayed Linear Release Cucumber-Citrus Perfume"}, "[12]": {"settings": "within its water release group, Flash Release Citrus-Floral"}}}
{"smiles": "CC1=CCC(C(C)CC2CCCC2=O)CC1", "note": "(stereo not shown)", "values": [{"measurement": "% Odor", "setting": "[1]", "result": 67.96, "unit": "%"}]}
{"smiles": "C=CC(C)(O)CCC=C(C)CC", "note": "(mixture of isomers) [ETHYL LINALOOL]", "values": [{"measurement": "% Odor Contribution", "setting": "[2]", "result": 67.16, "unit": "%"}, {"measurement": "% Odor Contribution", "setting": "[3]", "result": 0.95, "unit": "%"}, {"measurement": "% Odor Contribution", "setting": "[4]", "result": 2.89, "unit": "%"}, {"measurement": "% Odor Contribution", "setting": "[5]", "result": 41.86, "unit": "%"}, {"measurement": "% Odor Contribution", "setting": "[6]", "result": 46.15, "unit": "%"}, {"measurement": "% Odor Contribution", "setting": "[7]", "result": 0.97, "unit": "%"}]}
{"smiles": "CC1=CCC(C=CC(C)C(C)O)C1(C)C", "note": "(stereo in doubt) [EBANOL]", "values": [{"measurement": "% Odor Contribution", "setting": "[8]", "result": 0.01, "unit": "%"}, {"measurement": "% Odor Contribution", "setting": "[5]", "result": 0.04, "unit": "%"}]}
{"smiles": "CCCCCCCCCC=O", "note": "[ALDEHYDE C10 (DECANAL), DECANAL]", "values": [{"measurement": "% Odor Contribution", "setting": "[3]", "result": 1.70, "unit": "%"}]}
{"smiles": "CCCCCCCC=O", "note": "[ALDEHYDE C 8 (OCTANAL), OCTANAL]", "values": [{"measurement": "% Odor Contribution", "setting": "[2]", "result": 0.88, "unit": "%"}, {"measurement": "% Odor Contribution", "setting": "[3]", "result": 3.65, "unit": "%"}, {"measurement": "% Odor", "setting": "[9]", "result": 0.08, "unit": "%"}, {"measurement": "% Odor Contribution", "setting": "[7]", "result": 1.26, "unit": "%"}]}
{"smiles": "C=CCOC(=O)CCCCC", "note": "[ALLYL CAPROATE]", "values": [{"measurement": "% Odor", "setting": "[10]", "result": 7.62, "unit": "%"}]}
{"smiles": "CC(OC=O)C1CCCC(C)(C)C1", "note": "(stereo not shown) [APHERMATE]", "values": [{"measurement": "% Odor", "setting": "[1]", "result": 0.56, "unit": "%"}]}
{"smiles": "CCOC(=O)CC1(C)OCCO1", "note": "[APPLINAL]", "values": [{"measurement": "% Odor Contribution", "setting": "[4]", "result": 0.63, "unit": "%"}]}
{"smiles": "CC(=O)OCc1ccccc1", "note": "[BENZYL ACETATE]", "values": [{"measurement": "% Odor Contribution", "setting": "[3]", "result": 3.70, "unit": "%"}, {"measurement": "% Odor Contribution", "setting": "[7]", "result": 2.56, "unit": "%"}]}
{"smiles": "CCCCCC1CC(=O)C=C(C)C1C(=O)OCC", "note": "(stereo not shown) [CALYXOL]", "values": [{"measurement": "% Odor Contribution", "setting": "[3]", "result": 4.10, "unit": "%"}, {"measurement": "% Odor Contribution", "setting": "[7]", "result": 0.30, "unit": "%"}]}
{"smiles": "CC/C=C\\CCOC(C)=O", "note": "[CIS-3-HEXENYL ACETATE]", "values": [{"measurement": "% Odor Contribution", "setting": "[2]", "result": 0.26, "unit": "%"}, {"measurement": "% Odor Contribution", "setting": "[3]", "result": 1.10, "unit": "%"}, {"measurement": "% Odor Contribution", "setting": "[6]", "result": 0.35, "unit": "%"}, {"measurement": "% Odor Contribution", "setting": "[7]", "result": 0.38, "unit": "%"}]}
{"smiles": "CC/C=C\\CCOC(=O)c1ccccc1O", "note": "[CIS-3-HEXENYL SALICYLATE]", "values": [{"measurement": "% Odor Contribution", "setting": "[8]", "result": 9.82, "unit": "%"}, {"measurement": "% Odor Contribution", "setting": "[6]", "result": 2.62, "unit": "%"}]}
{"smiles": "CC(C)=CCCC(C)CC=O", "note": "(stereo not shown) [CITRONELLAL]", "values": [{"measurement": "% Odor Contribution", "setting": "[3]", "result": 16.97, "unit": "%"}, {"measurement": "% Odor Contribution", "setting": "[4]", "result": 30.94, "unit": "%"}, {"measurement": "% Odor", "setting": "[9]", "result": 17.18, "unit": "%"}]}
{"smiles": "CC(C)=CCCC(C)CCO", "note": "(stereo not shown) [CITRONELLOL]", "values": [{"measurement": "% Odor Contribution", "setting": "[4]", "result": 52.81, "unit": "%"}]}
{"smiles": "CC(C)=CCCC(C)CC#N", "note": "(stereo not shown) [CITRONELLYL NITRILE]", "values": [{"measurement": "% Odor Contribution", "setting": "[3]", "result": 2.63, "unit": "%"}, {"measurement": "% Odor Contribution", "setting": "[11]", "result": 6.61, "unit": "%"}, {"measurement": "% Odor Contribution", "setting": "[4]", "result": 1.62, "unit": "%"}, {"measurement": "% Odor Contribution", "setting": "[12]", "result": 6.73, "unit": "%"}]}
{"smiles": "C=CC(C)CCCC(C)(C)O", "note": "(stereo not shown) [DIHYDROMYRCENOL]", "values": [{"measurement": "% Odor Contribution", "setting": "[2]", "result": 1.67, "unit": "%"}, {"measurement": "% Odor Contribution", "setting": "[7]", "result": 0.80, "unit": "%"}]}
{"smiles": "CC(=O)OC(C)(C)Cc1ccccc1", "note": "[DIMETHYL BENZYL CARBINYL ACETATE]", "values": [{"measurement": "% Odor", "setting": "[10]", "result": 68.23, "unit": "%"}, {"measurement": "% Odor", "setting": "[9]", "result": 69.13, "unit": "%"}]}
{"smiles": "CCOC(=O)C(C)CC", "note": "(stereo not shown) [ETHYL 2-METHYL BUTYRATE, Ethyl 2-methylbutyrate]", "values": [{"measurement": "% Odor Contribution", "setting": "[4]", "result": 60.58, "unit": "%"}, {"measurement": "% Odor Contribution", "setting": "[5]", "result": 0.60, "unit": "%"}]}
{"smiles": "CCC(C)C(=O)N(C)c1ccccc1", "note": "(stereo not shown) [GARDAMIDE]", "values": [{"measurement": "% Odor", "setting": "[1]", "result": 99.79, "unit": "%"}]}
{"smiles": "CC(=O)OC/C=C(\\C)CCC=C(C)C", "note": "[GERANYL ACETATE]", "values": [{"measurement": "% Odor Contribution", "setting": "[7]", "result": 1.68, "unit": "%"}]}
{"smiles": "CC(CC=O)CCCC(C)(C)O", "note": "(stereo not shown) [HYDROXYCITRONELLAL]", "values": [{"measurement": "% Odor Contribution", "setting": "[3]", "result": 0.62, "unit": "%"}, {"measurement": "% Odor Contribution", "setting": "[7]", "result": 0.61, "unit": "%"}]}
{"smiles": "CC1=CC(C)C(C=O)CC1", "note": "(stereo not shown) [LIGUSTRAL]", "values": [{"measurement": "% Odor Contribution", "setting": "[6]", "result": 0.54, "unit": "%"}]}
{"smiles": "C=CC(C)(O)CCC=C(C)C", "note": "(stereo not shown) [LINALOOL, linalool]", "values": [{"measurement": "% Odor Contribution", "setting": "[11]", "result": 12.04, "unit": "%"}]}
{"smiles": "CC(CC=O)CCc1ccccc1", "note": "(stereo not shown) [MEFRANAL]", "values": [{"measurement": "% Odor Contribution", "setting": "[5]", "result": 100.00, "unit": "%"}]}
{"smiles": "CCCCCC1C(=O)CCC1CC(=O)OC", "note": "(stereo not shown) [METHYL DIHYDRO JASMONATE]", "values": [{"measurement": "% Odor Contribution", "setting": "[5]", "result": 95.62, "unit": "%"}]}
{"smiles": "CCCCCCC#CC(=O)OC", "note": "[METHYL OCTINE CARBONATE]", "values": [{"measurement": "% Odor Contribution", "setting": "[11]", "result": 21.76, "unit": "%"}]}
{"smiles": "CCC(CC)C(=O)N(C)c1cccc(C)c1", "note": "[PARADISAMIDE]", "values": [{"measurement": "% Odor Contribution", "setting": "[2]", "result": 96.99, "unit": "%"}, {"measurement": "% Odor Contribution", "setting": "[3]", "result": 86.08, "unit": "%"}, {"measurement": "% Odor Contribution", "setting": "[11]", "result": 33.88, "unit": "%"}]}
{"smiles": "CC(C)C(=O)OCCOc1ccccc1", "note": "[PHENOXY ETHYL ISOBUTYRATE]", "values": [{"measurement": "% Odor", "setting": "[9]", "result": 89.96, "unit": "%"}]}
{"smiles": "CC(=O)OCCc1ccccc1", "note": "[PHENYL ETHYL ACETATE]", "values": [{"measurement": "% Odor Contribution", "setting": "[3]", "result": 0.23, "unit": "%"}, {"measurement": "% Odor Contribution", "setting": "[7]", "result": 0.23, "unit": "%"}]}
{"smiles": "CC1CC(C)(c2ccccc2)CO1", "note": "(stereo not shown) [RHUBAFURAN]", "values": [{"measurement": "% Odor", "setting": "[10]", "result": 0.80, "unit": "%"}, {"measurement": "% Odor Contribution", "setting": "[3]", "result": 0.16, "unit": "%"}, {"measurement": "% Odor Contribution", "setting": "[6]", "result": 6.62, "unit": "%"}, {"measurement": "% Odor Contribution", "setting": "[7]", "result": 0.16, "unit": "%"}]}
{"smiles": "CC(C)CC1CCCC(C)(O)C1", "note": "(stereo not shown) [ROSSITOL]", "values": [{"measurement": "% Odor Contribution", "setting": "[2]", "result": 10.38, "unit": "%"}, {"measurement": "% Odor Contribution", "setting": "[3]", "result": 0.16, "unit": "%"}, {"measurement": "% Odor Contribution", "setting": "[11]", "result": 10.19, "unit": "%"}, {"measurement": "% Odor Contribution", "setting": "[4]", "result": 1.32, "unit": "%"}, {"measurement": "% Odor Contribution", "setting": "[6]", "result": 6.82, "unit": "%"}, {"measurement": "% Odor Contribution", "setting": "[7]", "result": 0.16, "unit": "%"}]}
{"smiles": "CCC(C)(O)CCCC(C)C", "note": "(stereo not shown) [TETRAHYDROLINALOOL]", "values": [{"measurement": "% Odor Contribution", "setting": "[8]", "result": 2.90, "unit": "%"}]}
{"smiles": "CC/C=C\\CC/C=C/C=O", "note": "[TRANS 2 CIS 6 NONADIENAL]", "values": [{"measurement": "% Odor Contribution", "setting": "[11]", "result": 4.06, "unit": "%"}, {"measurement": "% Odor Contribution", "setting": "[6]", "result": 6.10, "unit": "%"}]}
{"smiles": "CCCCCCCCCCC=CC#N", "note": "[TRIDECEN 2 NITRILE]", "values": [{"measurement": "% Odor Contribution", "setting": "[11]", "result": 0.19, "unit": "%"}, {"measurement": "% Odor Contribution", "setting": "[6]", "result": 0.62, "unit": "%"}, {"measurement": "% Odor Contribution", "setting": "[7]", "result": 0.13, "unit": "%"}]}
{"smiles": "C=C(C)[C@H]1CC=C(C)CC1", "note": "[d-LIMONENE, d-1-Methyl-4-isopropenyl-1-cyclohexene]", "values": [{"measurement": "% Odor Contribution", "setting": "[8]", "result": 65.04, "unit": "%"}, {"measurement": "% Odor Contribution", "setting": "[3]", "result": 100.00, "unit": "%"}, {"measurement": "% Odor Contribution", "setting": "[12]", "result": 100.00, "unit": "%"}, {"measurement": "% Odor Contribution", "setting": "[7]", "result": 100.00, "unit": "%"}]}
